Test results as given in ChEMBL document CHEMBL1143881, “Sulfonamidolactam inhibitors of coagulation factor Xa” (Bioorg Med Chem Lett, 2008).

How the values were obtained:
Plasma = experiment: Anticoagulant efficacy in human citreated plasma assessed as concentration required to double prothrombin time; assay type: functional
[1] = Apparent permeability across human Caco-2 cells; assay type: ADME, cell-based

Papp [1]: 8.3 ×10⁻⁶ cm/s
Compound: O=C1C(NS(=O)(=O)c2cc3ccc(Cl)nc3s2)CCCN1c1ccc(-n2ccccc2=O)cc1F (configuration not stated)
PT (Plasma): 32 µM
